{"source": "patent US20230348562A1", "about": "“Proinsulin Peptides for Type I Diabetes” (King's College London, priority 2019, published 2023)", "test_system": "DR3DQ2×RIP-B7.1 mice", "experiment": "Adjuvanted antigen priming (disease acceleration), diabetes monitoring", "type": "in vivo", "settings": "follow up to 20 weeks post prime", "description": "Mice were monitored weekly for diabetes up to 20 weeks post prime. The grey dotted line indicates the expected level of spontaneous diabetes in mice aged 12 weeks on day 0 of the experiments (based on the data in FIG. 1 and normalised for gender). Statistical analysis with Mantel-Cox Log-rank test. **p<0.01, ***p<0.001. • (b-e) Blood glucose levels for each individual mouse in the group immunised with PBS (b), murine proinsulin-2 peptides (c), human GAD65 (d) or fragment of human IA-2 (e).\nMice were monitored weekly for diabetes up to 20 weeks post prime. […]\n(a) DR3DQ2×RIP-B7.1 mice aged 10-14 weeks were challenged with 100 μg of either GP-15 (2 ♂3♀), YA-15 (2 ♂3♀), ME-15 (3 ♂2♀), RG-15 (3 ♂2♀), DA-15 (2 ♂3♀) or VD-14 (3♂2♀) peptide in TiterMax Gold adjuvant s.c. on days 0 and 14, with 200 ng pertussis toxin administered i.p on days 0 and 1 or 2. Mice were monitored weekly for diabetes up to 20 weeks post prime. […]\nAll mice were monitored regularly for unprovoked glycosuria using Diastix strips (Bayer, Basel, Switzerland). Some mice were monitored weekly for hyperglycaemia, from the age of 6-7 weeks, by a minimal puncture of the tail vein at alternate sides of the tail and analysis using a OneTouch Verio meter and strips (Lifescan, High Wycombe, UK), in order to closely monitor progression towards spontaneous diabetes. […] Mice were then monitored weekly for hyperglycaemia and for glycosuria. […]", "note": "At least one peptide structure holds a part that was inferred or is arguable (an end, a ring closure or a residue). Where no end group is shown, it is not given here."}
{"sequence": "REVEDPQVAQLELGG [RG-15, REVEDPQVAQLELGG]", "values": [{"measurement": "diabetes acceleration / incidence versus control or spontaneous onset (in words)", "value": "can also drive disease"}]}
